75 compounds from the supplement of paper PMC7024190 can be followed below.

Where a name gives a salt, the structure may show the parent alone. The list shows a part of the results. Single values are uncertain here, since repeats match poorly.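 The cells were human embryonic kidney cells carrying a Renilla luciferase gene, driven by the HSV-TK promoter, on a plasmid put in briefly by transfection. This is the first-round screen of about ten thousand compounds, looking for ones that raise reporter output.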

The subject of this assay is HEK 293FT. The assay is described as follows: log relative Renilla luciferase luminescence (reporter expression vs reference, reference not stated) (log (base not stated)); higher = higher recombinant reporter expression. To be noted: 10 µM; time after transfection 48 h.
Regarding `CC(C)(C)C(=O)C(Oc1ccc(Cl)cc1)n1ccnc1` (stereo not given) [climbazole], the log is 0.108.
Then `Cc1ccccc1OCC(O)CO` (stereo not given) [mephenesin], with -0.0516.
Then `S=c1ccss1` [3h-1,2-dithiole-3-thione], with 0.133.
The figure for `c1ccc2c(c1)CN1CCCC1=N2` [deoxypeganine hydrochloride] is 0.131.
`O=C1CN(/N=C/c2ccc([N+](=O)[O-])o2)C(=O)N1` [nitrofurantoin]: the log was -1.61.
The figure for `C[C@H](N)[C@H](O)c1cccc(O)c1` [metaraminol bitartrate] is -0.0193; for `CCN(CC)CCOC(=O)C(Cc1cccc2ccccc12)CC1CCCO1` (stereo not given) [nafronyl oxalate] it is 0.0832; for `CC1(C)S[C@@H]2[C@H](NC(=O)C(C(=O)O)c3ccccc3)C(=O)N2[C@H]1C(=O)O` (stereo not given in full) [carbenicillin disodium] it is -0.236.
Then `CCC(=O)Oc1ccc2c(c1)CC[C@@H]1[C@@H]2CC[C@]2(C)[C@@H](OC(=O)CC)CC[C@@H]12` [estradiol dipropionate], with -0.0613; and `C=C[C@@H](C1=CC(=O)C(OC)=C(OC)C1=O)c1ccccc1` [3,4-dimethoxydalbergione], with 0.0313; and `CC(C)OC(=O)CCC/C=C\C[C@@H]1[C@@H](/C=C/[C@@H](O)COc2cccc(C(F)(F)F)c2)[C@H](O)C[C@@H]1O` [travoprost], with -0.0803.
Then `O=C1CN(/N=C/c2ccc(-c3ccc([N+](=O)[O-])cc3)o2)C(=O)N1` [dantrolene sodium], with -0.145.
As to `COc1cc(O)c2c(c1)C(=O)c1cc(C)cc(O)c1C2=O` [physcion], the log came to 0.033.
As for `CCOC(=O)n1ccn(C)c1=S` [carbimazole], the log is -0.000954.
The figure for `CC1(O)CCC(C(C)(C)O)CC1` (stereo not given) [terpene hydrate] is 0.000491; for `CC1(C)S[C@@H]2[C@H](NC(=O)[C@H](C(=O)O)c3ccsc3)C(=O)N2[C@H]1C(=O)O` [ticarcillin disodium] it is 0.0567.
Then `CN[C@@H]1[C@@H](O)[C@@H](O[C@@H]2[C@@H](O)[C@H](O[C@H]3OC(CN)=CC[C@H]3N)[C@@H](N)C[C@H]2N)OC[C@]1(C)O` [sisomicin sulfate], with 0.0335; and `Cc1cc(NS(=O)(=O)c2ccc(N)cc2)no1` [sulfamethoxazole], with 0.0849.
Then `CC[C@H]1OC(=O)C[C@@H](O)[C@H](C)[C@@H](O[C@@H]2O[C@H](C)[C@@H](O[C@H]3C[C@@](C)(O)[C@@H](O)[C@H](C)O3)[C@H](N(C)C)[C@H]2O)[C@@H](CC=O)C[C@@H](C)C(=O)/C=C/C(C)=C/[C@@H]1CO[C@@H]1O[C@H](C)[C@@H](O)[C@@H](OC)[C@H]1OC` [tylosin tartrate], with 0.0336.
Regarding `COc1ccc2c(=O)c(-c3ccc(O)cc3)coc2c1` [isoformononetin], the log is -0.043.
Then `O=C(CCCCCCC(=O)Nc1ccccc1)NO` [vorinostat], with 0.313.
Then `COC(=O)CC1C(C)(C)C(OC(C)=O)[C@@H]2[C@@H](OC(C)=O)[C@]34O[C@@]2(O)[C@]1(C)C3CC[C@]1(C)C4=CC(=O)O[C@H]1c1ccoc1` (stereo not given in full) [xylocarpus a], with -0.139.
Then `COc1ccc(C=CC(=O)O)cc1OC` [3,4-dimethoxycinnamic acid], with 0.0192; and `CC1(C)O[C@@H]2C[C@H]3[C@@H]4CCC5=CC(=O)C=C[C@]5(C)[C@H]4[C@@H](O)C[C@]3(C)[C@]2(C(=O)CO)O1` [desonide], with 0.00864.
With `CCN(CC)CCOc1ccc2c(c1)C(=O)c1cc(OCCN(CC)CC)ccc1-2` [tilorone], the log turned out to be 0.194.
Regarding `CCN(CC)C(=S)SSC(=S)N(CC)CC` [disulfiram], the log is 0.0331.
Then `C=C[C@@]1(C)CC(=O)[C@]2(O)[C@@]3(C)[C@@H](O)CCC(C)(C)[C@@H]3[C@H](O)[C@H](OC(C)=O)[C@@]2(C)O1` [colforsin], with 0.146; and `CN(Cc1cnc2nc(N)nc(N)c2n1)c1ccc(C(=O)NC(CCC(=O)O)C(=O)O)cc1` (racemic) [methotrexate(+/-)], with -0.559; and `C/C(=C(\CCOP(=O)(O)O)SC(=O)c1ccccc1)N(C=O)Cc1cnc(C)nc1N` [benfotiamine], with -0.124.
Then `Nc1c2c(nc3ccccc13)CCCC2` [tacrine hydrochloride], with 0.143; and `CCCCC(CC)COC(=O)C(C#N)=C(c1ccccc1)c1ccccc1` (stereo not given) [octocrylene], with 0.0621.
Then `O=c1cc(-c2ccccc2)oc2cc(O)cc(O)c12` [chrysin], with -0.0611; and `C#C[C@]1(O)CC[C@H]2[C@@H]3CCc4cc(O)ccc4[C@H]3CC[C@@]21C` [ethinyl estradiol], with 0.142.
With `CC(C)=CC1C(CO)C1(C)C` (stereo not given) [chrysanthemyl alcohol], the log was -0.0992.
In the case of `Cc1occc(=O)c1O` [larixinic acid], the log is -0.0383.
Then `CC1(C)CC23C(=O)CCC(O)C2(C)CCC13` (stereo not given) [3-nor-3-oxopanasinsan-6-ol], with -0.121.
Then `CCC(C(N)=O)c1ccccc1` (stereo not given) [fenbutyramide], with -0.0145; and `CCOc1cc(CC(=O)N[C@@H](CC(C)C)c2ccccc2N2CCCCC2)ccc1C(=O)O` [repaglinide], with 0.0689; and `COc1cc2c(cc1OC)C1(O)C(=O)c3ccc(O)c(C(=O)O)c3OC1CO2` (stereo not given) [12a-hydroxy-9-demethylmunduserone-8-carboxylic acid], with 0.102.
Consider `C#CCCCCCCCCCCCC(O)CC(O)COC(C)=O` (stereo not given) [avocadyne acetate], for which the log is -0.0374.
Then `CC(=O)OCC(=O)[C@@]1(O)[C@H](C)C[C@H]2[C@@H]3CCC4=CC(=O)C=C[C@]4(C)[C@@]3(F)[C@@H](O)C[C@@]21C` [dexamethasone acetate], with 0.00852.
In the case of `CC1(C)C(=O)C=CC2(C)C1C=CC1(C)C2CCC2(C)C(c3ccoc3)OC(=O)C3OC312` (stereo not given) [7-desacetoxy-6,7-dehydrogedunin], the log is -0.0138.
The figure for `COc1ncnc(NS(=O)(=O)c2ccc(N)cc2)c1OC` [sulfadoxine] is -0.0119; for `CC1(C)CCC[C@]2(C)[C@H]3CC(=O)O[C@]3(C)CC[C@@H]12` [sclareolide] it is 0.00562.
On to `COc1c(N2C[C@@H]3CCCN[C@@H]3C2)c(F)cc2c(=O)c(C(=O)O)cn(C3CC3)c12` [moxifloxacin hydrochloride], for which the log is -0.164.
The figure for `COc1ccc(C(=O)c2ccccc2)c(O)c1` [oxybenzone] is -0.0898.
The figure for `COc1ccc(C(=O)CC(=O)c2ccc(C(C)(C)C)cc2)cc1` [avobenzone] is 0.00202.
The figure for `Nc1nc2c(ncn2COCCO)c(=O)[nH]1` [acyclovir] is 0.138.
Regarding `CC1(C)C(=O)[C@H]2C[C@]3(O)C4=CC(=O)O[C@@H](c5ccoc5)[C@@]4(C)CCC3[C@](C)(C2=O)[C@H]1CC(=O)O` (stereo not given in full) [8-hydroxycarapinic acid], the log was 0.144.
The figure for `CCCCCN(CCCCC)C(=O)C(CCC(=O)O)NC(=O)c1ccc(Cl)c(Cl)c1` (stereo not given) [lorglumide sodium] is 0.0647; for `O=c1cc(-c2ccccc2O)oc2cc(O)ccc12` [7,2'-dihydroxyflavone] it is -0.013.
In the case of `CC(C)NCC(O)c1ccc(O)c(O)c1` (stereo not given) [isoproterenol hydrochloride], the log stood at 0.136.
The figure for `COc1ccc2[nH]c([S@@+]([O-])Cc3ncc(C)c(OC)c3C)nc2c1` [esomeprazole potassium] is 0.109; for `CCCCC(CC)COC(=O)C=Cc1ccc(OC)cc1` (stereo not given) [octinoxate] it is 0.0873.
The figure for `CC(C)c1c(O)ccc2c1CC[C@H]1C(C)(C)CCC[C@]21C` [totarol] is 0.0387; for `CCCC1O[C@@H]2C[C@H]3[C@@H]4CCC5=CC(=O)C=C[C@]5(C)[C@H]4[C@@H](O)C[C@]3(C)[C@]2(C(=O)CO)O1` (stereo not given in full) [budesonide] it is -0.0711; for `O=NN(CCCl)C(=O)NCCCl` [carmustine] it is -0.075.
Regarding `CCOC(=O)c1ncn2c1CN(C)C(=O)c1cc(F)ccc1-2` [flumazenil], the log is 0.0186.
As to `CC1=C(/C=C/C(C)=C/C=C/C(C)=C/C=C/C=C(C)/C=C/C=C(C)/C=C/C2=C(C)C(=O)CCC2(C)C)C(C)(C)CCC1=O` [canthaxanthin (euglenanone)], the log stood at 0.0767.
The figure for `Nc1nc(N)c2nc(CNc3ccc(C(=O)N[C@@H](CCC(=O)O)C(=O)O)cc3)cnc2n1` [aminopterin] is -0.0551.
The figure for `CC(C(=O)O)c1cccc(C(=O)c2ccccc2)c1` (stereo not given) [ketoprofen] is -0.137; for `C[C@H]1O[C@@H](n2cc(F)c(=O)[nH]c2=O)[C@H](O)[C@@H]1O` [doxifluridine] it is -0.0232.
Then `O=c1c(-c2ccc(O)cc2)coc2cc(O)ccc12` [daidzein], with 0.097; and `CN1C(=O)OC(C)(C)C1=O` [trimethadione], with 0.0481.
As for `CC(=O)CCCCn1c(=O)c2c(ncn2C)n(C)c1=O` [pentoxifylline], the log is 0.128.
The figure for `CN(C/C=C/c1ccccc1)Cc1cccc2ccccc12` [naftifine hydrochloride] is -0.165; for `NCCNCCNCCN` [trientine hydrochloride] it is 0.116.
Then `O=C(CCc1ccc(O)cc1)c1c(O)cc(O)cc1O[C@@H]1OC(CO)[C@@H](O)[C@@H](O)C1O` (stereo not given in full) [phloridzin], with 0.0818; and `COc1c(C)c2c(c(O)c1C/C=C(\C)CCC(=O)O)C(=O)OC2` [mycophenolic acid], with -1.58.
The figure for `O=C(O)c1ccc(S(=O)(=O)N(Cl)Cl)cc1` [halazone] is 0.0398.
As for `O=C(Oc1ccccc1C(=O)O)c1ccccc1O` [salsalate], the log was -0.0552.
Regarding `CCCCCNC(=N)N/N=C/c1c[nH]c2ccc(OC)cc12` [tegaserod maleate], the log is -0.273.
Regarding `CCN1CCCC(OC(=O)C(c2ccccc2)c2ccccc2)C1` (stereo not given) [piperidolate hydrochloride], the log worked out at 0.0338.
The figure for `Nc1ccc(C(=O)O)cc1` [potassium p-aminobenzoate] is 0.0108; for `CCCCCC(=O)O[C@]1(C(C)=O)CC[C@H]2[C@@H]3CCC4=CC(=O)CC[C@]4(C)[C@H]3CC[C@@]21C` [hydroxyprogesterone caproate] it is -0.176.
